The record followed here is paper PMC6023120.

The target of this experiment is Schistosoma mansoni methyl-CpG-binding domain protein (SmMBD2/3) (Schistosoma mansoni) (UniProt C4Q592). Nature of the experiment: two-hybrid; Matchmaker library screen: SmMBD2/3 Gal4-BD bait (pGBKT7, Y187) against adult S. mansoni cDNA library (pGADT7-Rec, AH109); SD/-Trp/-Leu/-His/-Ade + X-α-gal, X-β-gal filter assay; in-frame hits retested by co-transformation into Y2HGold with Aureobasidin A (60 ng/ml).

Results are given in words; binding and its absence hold for the method and conditions named. Binding calls can cover weak binding; strength is not graded here.

With “S. mansoni chromobox protein SmCBX (Δ1–160), C-terminal in-frame truncation of Smp_179650 (from UniProt G4VDS7) (domain or fragment)”, the binding entry is on record as “binds”.
